# This is one part of the list. Shown are side measurements of this screen, not its main read-out; they come without a call. Compounds called inactive in the main read-out are mostly missing here. The note in brackets gives the kind of curve behind each potency; many fits are weak.
# Test: qHTS Assay for Lipid Storage Modulators in Drosophila S3 Cells;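 for cell number change: cells counted by Cell Tracker Red CMTPX staining in the red channel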
# Conditions: BODIPY lipid droplet fluorescence, 18-24 h; for cell number change: measured here: cell count max response, cells fed with added oleic acid
# In short: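 Laser-scanning cytometry quantifies lipid droplet accumulation (500–530 nm total intensity; droplet/cell object ratio) in oleic acid-fed (400 uM added) Drosophila S3 cells treated with a concentration series. 20 uM Triacsin C defined 100% inhibition.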
# [1] = measured here: cell number channel AC50, cells fed with added oleic acid
# [2] = measured here: lipid fluorescence (Fed channel) AC50, cells fed with added oleic acid
SMILES,cell number change [%],AC50 [1],AC50 [2]
COc1ccc(C(=O)N2CCN(c3nc4ccccc4o3)CC2)cc1OC,-38.4,"7310 nM [falling, partial curve, poor fit]",
Clc1ccc(Cn2c(-c3cccnc3Cl)nc3ccccc32)cc1,20,,"29100 nM [rising, single point]"
O=C(c1cn(-c2ccccc2)nc1-c1ccccc1)n1nnc2ccccc21,-2.81,,"1030 nM [falling, full curve, poor fit]"
S=C(NCCc1ccc(Cl)cc1)NC1CC1,13.7,,"15800 nM [rising, single point]"
CC1(C)Cc2c(cnn2-c2ccc(F)cc2)C(NC(=O)CCCN2CCCCC2=O)C1 (stereo unspecified),-1.47,,"29100 nM [falling, single point]"
Cc1c(NC(=O)c2ccc(Br)o2)cccc1C(=O)O,38.4,"29100 nM [rising, single point]",
CCOc1ccccc1NC(=O)NC1CC2CCCC(C1)N2Cc1nnnn1CCc1ccccc1 (stereo unspecified),31.8,"259 nM [rising, full curve, poor fit]","411 nM [rising, partial curve, poor fit]"
COc1ccc(-c2cc(-c3ccc(Cl)cc3)c(C#N)c(SCC(=O)O)n2)cc1,,"5.17 nM [falling, full curve, poor fit]",
Cc1ccnc(SCC(=O)c2cccs2)n1,34.7,,
Cc1cccc(OCCN2C(=O)C(=O)c3cc(C)ccc32)c1,-56.6,"18400 nM [falling, partial curve]","517 nM [falling, single point]"
C/C(CC(=O)Nc1ccc([N+](=O)[O-])cc1)=N/NC(=O)C1CC12CCC2 (stereo unspecified),-19.2,,
CCCOP(=O)(c1ccc(N(C)C)cc1)C(O)c1ccc(N(C)C)cc1 (stereo unspecified),-15.3,,"29100 nM [rising, single point]"
CCOC(=O)[C@H]1[C@H]2COc3cc(OC)ccc3[C@@H]2N2C(=O)N(c3ccc(Cl)cc3)C(=O)[C@@]12C,28.5,,"29100 nM [rising, single point]"
CCCN(CCC)c1nc2ccccc2nc1C(C#N)C(=O)OCCOC (stereo unspecified),4.34,"651 nM [rising, single point]","1300 nM [rising, full curve]"
CN(C)/C(=N\S(=O)(=O)c1ccccc1)c1ccc(F)cc1,12.2,,"130 nM [rising, full curve, poor fit]"
COc1cc(C(=O)NCc2nnc(SCC(=O)Nc3cccc(C(F)(F)F)c3)o2)cc(OC)c1OC,,,"1300 nM [falling, partial curve]"
